Source: the supplement of paper PMC12819154, “High-throughput peptide-centric local stability assay extends protein–ligand identification to membrane proteins, tissues and bacteria” (Nature Structural & Molecular Biology, 2025)
This is one part of the list. Most entries show no effect beyond the scatter of the controls.

The chains behind the UniProt entries cited, without tags or fusion partners. Where a name states a change or a piece, a line headed by the entry shows the natural chain unless it says otherwise.
UniProt Q9ERE7: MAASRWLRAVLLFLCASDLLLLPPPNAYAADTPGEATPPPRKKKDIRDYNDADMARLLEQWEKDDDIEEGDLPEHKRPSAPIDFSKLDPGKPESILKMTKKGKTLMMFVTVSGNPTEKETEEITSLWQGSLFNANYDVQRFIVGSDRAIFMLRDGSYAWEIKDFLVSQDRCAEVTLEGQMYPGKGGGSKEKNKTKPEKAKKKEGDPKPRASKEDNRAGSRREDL
UniProt Q9JKJ9: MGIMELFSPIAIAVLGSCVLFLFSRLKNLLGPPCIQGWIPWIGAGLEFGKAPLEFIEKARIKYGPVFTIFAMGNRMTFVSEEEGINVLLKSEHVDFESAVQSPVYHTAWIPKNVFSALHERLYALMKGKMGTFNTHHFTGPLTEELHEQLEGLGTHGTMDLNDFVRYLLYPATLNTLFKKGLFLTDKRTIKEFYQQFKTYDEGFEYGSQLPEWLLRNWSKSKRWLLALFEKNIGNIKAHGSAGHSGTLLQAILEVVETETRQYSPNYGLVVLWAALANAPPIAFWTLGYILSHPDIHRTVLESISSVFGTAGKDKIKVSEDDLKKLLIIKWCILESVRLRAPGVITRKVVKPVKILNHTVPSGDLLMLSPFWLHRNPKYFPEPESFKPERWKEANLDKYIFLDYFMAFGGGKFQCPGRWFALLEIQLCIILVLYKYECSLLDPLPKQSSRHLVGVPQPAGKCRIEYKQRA
UniProt Q9DCG6: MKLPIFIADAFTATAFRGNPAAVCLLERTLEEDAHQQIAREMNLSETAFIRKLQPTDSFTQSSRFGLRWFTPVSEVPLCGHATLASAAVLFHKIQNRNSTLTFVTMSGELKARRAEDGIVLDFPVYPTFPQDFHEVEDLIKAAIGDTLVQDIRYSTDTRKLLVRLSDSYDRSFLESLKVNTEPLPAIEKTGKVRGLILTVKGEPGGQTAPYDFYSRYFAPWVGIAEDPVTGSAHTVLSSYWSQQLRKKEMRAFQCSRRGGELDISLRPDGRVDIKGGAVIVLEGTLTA
UniProt Q9ERU9, whole entry: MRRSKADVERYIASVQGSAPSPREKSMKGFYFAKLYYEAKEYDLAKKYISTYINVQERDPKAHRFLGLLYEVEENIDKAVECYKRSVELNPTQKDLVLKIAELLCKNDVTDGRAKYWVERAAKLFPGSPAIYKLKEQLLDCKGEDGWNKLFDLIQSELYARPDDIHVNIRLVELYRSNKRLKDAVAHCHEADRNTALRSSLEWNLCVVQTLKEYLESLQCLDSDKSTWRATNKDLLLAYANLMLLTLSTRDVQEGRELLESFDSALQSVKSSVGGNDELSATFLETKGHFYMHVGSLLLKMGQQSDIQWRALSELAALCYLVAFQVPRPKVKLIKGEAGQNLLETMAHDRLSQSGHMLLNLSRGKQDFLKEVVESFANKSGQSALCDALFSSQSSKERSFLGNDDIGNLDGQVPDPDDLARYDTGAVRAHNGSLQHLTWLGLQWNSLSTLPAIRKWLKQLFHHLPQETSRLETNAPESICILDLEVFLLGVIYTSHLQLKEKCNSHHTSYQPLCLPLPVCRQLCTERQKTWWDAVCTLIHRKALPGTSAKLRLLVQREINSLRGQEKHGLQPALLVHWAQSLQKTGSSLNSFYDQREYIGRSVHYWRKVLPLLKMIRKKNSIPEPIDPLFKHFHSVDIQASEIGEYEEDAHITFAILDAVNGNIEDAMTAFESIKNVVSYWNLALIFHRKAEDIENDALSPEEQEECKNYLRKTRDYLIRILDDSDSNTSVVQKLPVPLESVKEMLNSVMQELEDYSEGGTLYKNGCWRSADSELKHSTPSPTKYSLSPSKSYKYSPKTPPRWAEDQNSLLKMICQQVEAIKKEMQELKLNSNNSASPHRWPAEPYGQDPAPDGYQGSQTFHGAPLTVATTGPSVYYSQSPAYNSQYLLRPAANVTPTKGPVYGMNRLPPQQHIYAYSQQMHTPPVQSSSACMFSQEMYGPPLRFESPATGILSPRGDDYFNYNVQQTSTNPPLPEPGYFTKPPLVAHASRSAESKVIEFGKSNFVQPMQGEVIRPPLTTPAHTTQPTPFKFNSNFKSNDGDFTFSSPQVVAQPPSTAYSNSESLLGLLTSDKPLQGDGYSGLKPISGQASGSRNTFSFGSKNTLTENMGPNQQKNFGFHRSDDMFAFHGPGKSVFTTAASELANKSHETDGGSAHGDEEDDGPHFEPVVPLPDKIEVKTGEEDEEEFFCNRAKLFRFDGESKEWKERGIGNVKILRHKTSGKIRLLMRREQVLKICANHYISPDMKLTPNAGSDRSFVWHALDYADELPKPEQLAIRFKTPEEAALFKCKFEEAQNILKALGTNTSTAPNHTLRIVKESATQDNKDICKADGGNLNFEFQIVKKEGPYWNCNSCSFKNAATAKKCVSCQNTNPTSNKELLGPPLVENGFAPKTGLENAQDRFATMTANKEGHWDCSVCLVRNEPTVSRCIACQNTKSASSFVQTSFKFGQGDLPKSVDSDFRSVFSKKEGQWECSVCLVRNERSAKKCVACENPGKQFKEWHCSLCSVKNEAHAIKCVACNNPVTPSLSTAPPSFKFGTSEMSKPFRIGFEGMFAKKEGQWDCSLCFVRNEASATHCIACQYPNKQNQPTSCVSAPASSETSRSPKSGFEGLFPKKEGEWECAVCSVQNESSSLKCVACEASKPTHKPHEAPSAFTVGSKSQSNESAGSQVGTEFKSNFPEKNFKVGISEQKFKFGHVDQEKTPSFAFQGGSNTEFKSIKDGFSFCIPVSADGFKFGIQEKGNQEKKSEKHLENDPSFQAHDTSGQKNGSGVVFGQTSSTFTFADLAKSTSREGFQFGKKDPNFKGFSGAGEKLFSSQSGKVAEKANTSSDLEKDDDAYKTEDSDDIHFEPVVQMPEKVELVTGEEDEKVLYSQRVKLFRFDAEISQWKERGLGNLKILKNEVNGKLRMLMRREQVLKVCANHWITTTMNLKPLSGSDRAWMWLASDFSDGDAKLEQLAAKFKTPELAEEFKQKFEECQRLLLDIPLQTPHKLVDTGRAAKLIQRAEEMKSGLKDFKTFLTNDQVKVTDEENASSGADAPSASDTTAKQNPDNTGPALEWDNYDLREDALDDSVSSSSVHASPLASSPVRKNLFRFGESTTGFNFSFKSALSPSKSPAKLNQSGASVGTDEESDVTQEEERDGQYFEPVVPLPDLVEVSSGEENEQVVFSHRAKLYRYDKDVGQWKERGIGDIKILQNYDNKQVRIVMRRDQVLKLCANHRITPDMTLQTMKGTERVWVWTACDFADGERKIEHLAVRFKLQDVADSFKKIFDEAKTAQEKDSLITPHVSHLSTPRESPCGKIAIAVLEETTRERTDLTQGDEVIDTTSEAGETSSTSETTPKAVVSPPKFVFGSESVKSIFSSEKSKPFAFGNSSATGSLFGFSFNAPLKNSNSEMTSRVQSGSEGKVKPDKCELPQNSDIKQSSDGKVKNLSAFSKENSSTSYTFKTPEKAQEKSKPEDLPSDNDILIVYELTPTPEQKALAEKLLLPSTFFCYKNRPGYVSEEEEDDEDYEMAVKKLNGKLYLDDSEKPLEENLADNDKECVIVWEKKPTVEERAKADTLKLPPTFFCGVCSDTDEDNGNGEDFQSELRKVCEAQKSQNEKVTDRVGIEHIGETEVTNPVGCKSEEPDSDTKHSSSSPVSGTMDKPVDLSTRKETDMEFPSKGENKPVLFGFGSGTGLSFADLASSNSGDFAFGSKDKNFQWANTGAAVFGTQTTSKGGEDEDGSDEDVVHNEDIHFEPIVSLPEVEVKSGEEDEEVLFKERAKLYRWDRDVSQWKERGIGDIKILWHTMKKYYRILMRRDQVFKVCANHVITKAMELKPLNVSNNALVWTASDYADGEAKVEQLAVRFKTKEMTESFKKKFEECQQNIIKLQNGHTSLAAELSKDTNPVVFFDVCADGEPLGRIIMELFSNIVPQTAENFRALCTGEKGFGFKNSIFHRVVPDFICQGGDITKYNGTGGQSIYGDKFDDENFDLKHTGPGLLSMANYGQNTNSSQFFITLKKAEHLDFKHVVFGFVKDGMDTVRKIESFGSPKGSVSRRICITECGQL
UniProt Q9JMA1: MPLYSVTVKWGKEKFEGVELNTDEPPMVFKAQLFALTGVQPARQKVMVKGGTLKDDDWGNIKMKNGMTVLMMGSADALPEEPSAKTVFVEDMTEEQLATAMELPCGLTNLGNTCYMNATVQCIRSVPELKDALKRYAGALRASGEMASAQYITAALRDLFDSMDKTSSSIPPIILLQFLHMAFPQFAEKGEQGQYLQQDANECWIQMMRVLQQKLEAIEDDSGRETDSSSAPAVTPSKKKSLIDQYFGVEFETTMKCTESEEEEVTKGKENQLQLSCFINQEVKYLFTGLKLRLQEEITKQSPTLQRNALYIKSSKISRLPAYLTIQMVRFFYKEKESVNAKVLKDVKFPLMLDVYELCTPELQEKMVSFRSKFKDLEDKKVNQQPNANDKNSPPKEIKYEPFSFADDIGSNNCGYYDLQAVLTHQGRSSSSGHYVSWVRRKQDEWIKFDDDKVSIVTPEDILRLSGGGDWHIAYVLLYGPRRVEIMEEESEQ
UniProt Q9EQK5, whole entry: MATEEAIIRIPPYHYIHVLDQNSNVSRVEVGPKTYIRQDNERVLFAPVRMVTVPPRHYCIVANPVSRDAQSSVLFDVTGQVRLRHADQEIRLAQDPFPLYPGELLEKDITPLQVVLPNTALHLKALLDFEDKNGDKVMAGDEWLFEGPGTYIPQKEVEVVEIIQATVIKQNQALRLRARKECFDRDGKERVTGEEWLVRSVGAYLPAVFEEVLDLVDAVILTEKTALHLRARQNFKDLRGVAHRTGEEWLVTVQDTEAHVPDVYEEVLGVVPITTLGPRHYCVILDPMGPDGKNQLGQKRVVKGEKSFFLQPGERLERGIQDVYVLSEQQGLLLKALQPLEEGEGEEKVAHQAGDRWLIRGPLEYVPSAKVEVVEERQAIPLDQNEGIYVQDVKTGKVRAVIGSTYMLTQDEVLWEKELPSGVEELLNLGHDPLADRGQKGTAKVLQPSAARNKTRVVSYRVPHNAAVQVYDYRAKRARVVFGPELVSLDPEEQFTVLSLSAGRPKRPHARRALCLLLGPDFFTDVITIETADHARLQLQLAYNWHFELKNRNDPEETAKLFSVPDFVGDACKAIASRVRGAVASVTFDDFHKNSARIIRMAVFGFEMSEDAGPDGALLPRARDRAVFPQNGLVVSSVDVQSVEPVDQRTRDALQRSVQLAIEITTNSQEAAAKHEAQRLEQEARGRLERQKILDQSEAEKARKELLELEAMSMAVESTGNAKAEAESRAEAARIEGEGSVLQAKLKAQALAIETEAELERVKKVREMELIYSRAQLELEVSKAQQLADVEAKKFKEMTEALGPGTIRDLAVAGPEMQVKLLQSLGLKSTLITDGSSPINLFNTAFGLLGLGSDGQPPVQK
UniProt Q9QY01: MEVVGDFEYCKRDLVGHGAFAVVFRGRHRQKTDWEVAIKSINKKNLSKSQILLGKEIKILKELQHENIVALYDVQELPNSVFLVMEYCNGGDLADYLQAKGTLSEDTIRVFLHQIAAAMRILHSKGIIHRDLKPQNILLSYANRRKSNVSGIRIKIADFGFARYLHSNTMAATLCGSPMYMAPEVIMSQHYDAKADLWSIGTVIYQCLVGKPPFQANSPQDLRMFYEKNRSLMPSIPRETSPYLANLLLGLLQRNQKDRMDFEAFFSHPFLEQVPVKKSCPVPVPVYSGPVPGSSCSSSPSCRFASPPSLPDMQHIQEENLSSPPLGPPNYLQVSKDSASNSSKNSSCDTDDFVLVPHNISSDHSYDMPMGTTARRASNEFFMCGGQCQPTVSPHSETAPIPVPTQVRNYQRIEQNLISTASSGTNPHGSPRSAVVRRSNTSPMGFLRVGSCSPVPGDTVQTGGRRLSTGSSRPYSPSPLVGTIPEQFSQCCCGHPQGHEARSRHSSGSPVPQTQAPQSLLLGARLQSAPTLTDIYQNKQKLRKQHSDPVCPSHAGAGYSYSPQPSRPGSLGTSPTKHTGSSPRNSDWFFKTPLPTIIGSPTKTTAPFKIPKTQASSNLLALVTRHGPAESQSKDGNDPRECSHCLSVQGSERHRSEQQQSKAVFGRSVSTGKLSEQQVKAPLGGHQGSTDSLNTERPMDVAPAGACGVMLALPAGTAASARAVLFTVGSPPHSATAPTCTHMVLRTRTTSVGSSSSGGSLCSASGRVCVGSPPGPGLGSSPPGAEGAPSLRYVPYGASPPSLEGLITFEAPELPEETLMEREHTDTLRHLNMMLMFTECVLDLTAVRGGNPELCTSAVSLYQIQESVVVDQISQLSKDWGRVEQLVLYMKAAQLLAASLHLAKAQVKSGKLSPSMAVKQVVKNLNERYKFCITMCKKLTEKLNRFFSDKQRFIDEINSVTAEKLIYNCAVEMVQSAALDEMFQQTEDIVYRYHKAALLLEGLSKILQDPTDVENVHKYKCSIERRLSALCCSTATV
UniProt Q9QUR7, whole entry: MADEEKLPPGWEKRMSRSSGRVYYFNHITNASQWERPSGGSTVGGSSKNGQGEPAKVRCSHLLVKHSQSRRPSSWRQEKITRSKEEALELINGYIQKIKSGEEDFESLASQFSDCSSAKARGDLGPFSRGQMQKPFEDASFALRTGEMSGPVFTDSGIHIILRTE

compound: CN[C@@H]1C[C@H]2O[C@@](C)([C@@H]1OC)n1c3ccccc3c3c4c(c5c6ccccc6n2c5c31)C(=O)NC4 [staurosporine]; assay: log2 fold change of pooled soluble protein (PISA), ligand vs vehicle (log2 ratio); higher = more thermally stabilized; settings: ligand concentration: 20 uM; assay format: PISA pool 52.9/55.5/58.6 C

Row | Target | log2 fold change of pooled soluble protein
1 | UniProt Q9JJF9 | -0.0706
2 | UniProt Q9ERE7 | -0.0742
3 | UniProt Q9JL15 | -0.0337
4 | UniProt Q9DCN1 | 0.48
5 | UniProt Q9ERB0 | -0.0637
6 | UniProt Q9EPQ8 | -0.236
7 | UniProt Q9ERL7 | -0.0666
8 | UniProt Q9JKJ9 | -0.0721
9 | UniProt Q9DC61 | 0.116
10 | UniProt Q9DCG6 | -0.0036
11 | UniProt Q9JIK5 | -0.0148
12 | UniProt Q9ERU9 | -0.0443
13 | UniProt Q9JLQ2 | 0.414
14 | UniProt Q9JLI6 | 0.105
15 | UniProt Q9ERS2 | -0.144
16 | UniProt Q9EQH3 | -0.0467
17 | UniProt Q9DCT2 | -0.185
18 | UniProt Q9QXG2 | 0.0228
19 | UniProt Q9QYE6 | -0.0826

As entered above.
log2 fold change of pooled soluble protein, UniProt Q9ERL7 is entered as -0.0666
log2 fold change of pooled soluble protein, UniProt Q9JLI6 is entered as 0.105
log2 fold change of pooled soluble protein, UniProt Q9JL15 is entered as -0.0337

(list continues)

Row | Target | log2 fold change of pooled soluble protein
20 | UniProt Q9QYB8 | 0.135
21 | UniProt Q9DCZ4 | 0.134
22 | UniProt Q9JMA1 | -0.0836
23 | UniProt Q9QWY8 | 0.0992
24 | UniProt Q9EQK5 | -0.0321
25 | UniProt Q9NYQ2 | -0.492
26 | UniProt Q9ERI5 | -0.133
27 | UniProt Q9JL56 | 0.0337
28 | UniProt Q9QY01 | 0.0257
29 | UniProt Q9QYB5 | 0.021
30 | UniProt Q9QX15 | 0.208
31 | UniProt Q9JM96 | -0.209
32 | UniProt Q9QUR7 | 0.243
33 | UniProt Q9JKB3 | 0.00537
34 | UniProt Q9ET54 | 0.0231
35 | UniProt Q9DCT1 | -0.0818
36 | UniProt Q9EQS3 | 0.157
37 | UniProt Q9EQQ9 | -0.152
